Experimental data taken from patent US6482651B1, “Aromatic esters for marking or tagging petroleum products” (United Color Manufacturing, Inc., priority 1999, dated 2002).

Assay: Colour development of the marker with a base developing reagent, visual and spectrophotometric detection
Conditions: for marker concentration determined on a spectrophotometer: developed
[1] = developed with base developer in kerosene / fuel (Examples 2-8)
[2] = 4 ppm in diesel fuel, benzyltrimethylammonium hydroxide (2%) in 2-ethylhexanol
[3] = marked diesel diluted 10 ml in 90 ml unmarked diesel, benzyltrimethylammonium hydroxide (2%) in 2-ethylhexanol

| Structure (SMILES) | developed color [1] | wavelength of maximum absorption of developed color [1] | developed color [3] | further results |
| --- | --- | --- | --- | --- |
| CCCC(=O)Oc1cc(C)c(C2(c3cc(C(C)C)c(OC(=O)CCC)cc3C)OC(=O)c3ccccc32)cc1C(C)C [Example 8, thymolphalein dibutryate ester] | clear blue | around 598 nm | – | developed color (home heating oil, dosage equivalent to 90 ppm, benzyltrimethylammonium hydroxide (2%) in 2-ethylhexanol): blue; developed color (ten milligrams per liter of xylene, benzyltrimethylammonium hydroxide (5%) in ethanol): blue |
| CCCCCCCCCCCC(=O)Oc1ccc(C2(c3ccc(OC(=O)CCCCCCCCCCC)c4ccccc34)OC(=O)c3ccccc32)c2ccccc12 [Example 6] | clear turquoise | around 650 nm | – | – |
| CCCC(=O)Oc1ccc(C2(c3ccc(OC(=O)CCC)c(C)c3)OC(=O)c3ccccc32)cc1C [Example 1, o-Cresolphthalein dibutyrate ester] | – | – | red | marker concentration determined on a spectrophotometer (4 mg/l marked diesel diluted 10 ml in 90 ml unmarked diesel): 0.4 ppm; developed color [2]: intense red; maximum absorbance of developed marker [2]: 580 nm; marker concentration determined on a spectrophotometer (diesel fuel dosed at 4 ppm, compared with standard): 4 ppm |
| CCCC(=O)Oc1ccc(C2(c3ccc(OC(=O)CCC)c(C(C)CC)c3)OC(=O)c3ccccc32)cc1C(C)CC (centres unmarked) [Example 4] | much bluer shade of red than in Example 3 | around 580 nm | – | color of separated aqueous layer (two milligrams per liter of gasoline, 5% caustic soda solution): violet-red |
| CCCC(=O)Oc1ccc(C2(c3ccc(OC(=O)CCC)cc3C)OC(=O)c3ccccc32)c(C)c1 [Example 5] | purple | around 582 nm | reddish violet | – |
